# Reference: paper PMC8054397
# The chains behind the UniProt entries cited, without tags or fusion partners.
# UniProt Q13315: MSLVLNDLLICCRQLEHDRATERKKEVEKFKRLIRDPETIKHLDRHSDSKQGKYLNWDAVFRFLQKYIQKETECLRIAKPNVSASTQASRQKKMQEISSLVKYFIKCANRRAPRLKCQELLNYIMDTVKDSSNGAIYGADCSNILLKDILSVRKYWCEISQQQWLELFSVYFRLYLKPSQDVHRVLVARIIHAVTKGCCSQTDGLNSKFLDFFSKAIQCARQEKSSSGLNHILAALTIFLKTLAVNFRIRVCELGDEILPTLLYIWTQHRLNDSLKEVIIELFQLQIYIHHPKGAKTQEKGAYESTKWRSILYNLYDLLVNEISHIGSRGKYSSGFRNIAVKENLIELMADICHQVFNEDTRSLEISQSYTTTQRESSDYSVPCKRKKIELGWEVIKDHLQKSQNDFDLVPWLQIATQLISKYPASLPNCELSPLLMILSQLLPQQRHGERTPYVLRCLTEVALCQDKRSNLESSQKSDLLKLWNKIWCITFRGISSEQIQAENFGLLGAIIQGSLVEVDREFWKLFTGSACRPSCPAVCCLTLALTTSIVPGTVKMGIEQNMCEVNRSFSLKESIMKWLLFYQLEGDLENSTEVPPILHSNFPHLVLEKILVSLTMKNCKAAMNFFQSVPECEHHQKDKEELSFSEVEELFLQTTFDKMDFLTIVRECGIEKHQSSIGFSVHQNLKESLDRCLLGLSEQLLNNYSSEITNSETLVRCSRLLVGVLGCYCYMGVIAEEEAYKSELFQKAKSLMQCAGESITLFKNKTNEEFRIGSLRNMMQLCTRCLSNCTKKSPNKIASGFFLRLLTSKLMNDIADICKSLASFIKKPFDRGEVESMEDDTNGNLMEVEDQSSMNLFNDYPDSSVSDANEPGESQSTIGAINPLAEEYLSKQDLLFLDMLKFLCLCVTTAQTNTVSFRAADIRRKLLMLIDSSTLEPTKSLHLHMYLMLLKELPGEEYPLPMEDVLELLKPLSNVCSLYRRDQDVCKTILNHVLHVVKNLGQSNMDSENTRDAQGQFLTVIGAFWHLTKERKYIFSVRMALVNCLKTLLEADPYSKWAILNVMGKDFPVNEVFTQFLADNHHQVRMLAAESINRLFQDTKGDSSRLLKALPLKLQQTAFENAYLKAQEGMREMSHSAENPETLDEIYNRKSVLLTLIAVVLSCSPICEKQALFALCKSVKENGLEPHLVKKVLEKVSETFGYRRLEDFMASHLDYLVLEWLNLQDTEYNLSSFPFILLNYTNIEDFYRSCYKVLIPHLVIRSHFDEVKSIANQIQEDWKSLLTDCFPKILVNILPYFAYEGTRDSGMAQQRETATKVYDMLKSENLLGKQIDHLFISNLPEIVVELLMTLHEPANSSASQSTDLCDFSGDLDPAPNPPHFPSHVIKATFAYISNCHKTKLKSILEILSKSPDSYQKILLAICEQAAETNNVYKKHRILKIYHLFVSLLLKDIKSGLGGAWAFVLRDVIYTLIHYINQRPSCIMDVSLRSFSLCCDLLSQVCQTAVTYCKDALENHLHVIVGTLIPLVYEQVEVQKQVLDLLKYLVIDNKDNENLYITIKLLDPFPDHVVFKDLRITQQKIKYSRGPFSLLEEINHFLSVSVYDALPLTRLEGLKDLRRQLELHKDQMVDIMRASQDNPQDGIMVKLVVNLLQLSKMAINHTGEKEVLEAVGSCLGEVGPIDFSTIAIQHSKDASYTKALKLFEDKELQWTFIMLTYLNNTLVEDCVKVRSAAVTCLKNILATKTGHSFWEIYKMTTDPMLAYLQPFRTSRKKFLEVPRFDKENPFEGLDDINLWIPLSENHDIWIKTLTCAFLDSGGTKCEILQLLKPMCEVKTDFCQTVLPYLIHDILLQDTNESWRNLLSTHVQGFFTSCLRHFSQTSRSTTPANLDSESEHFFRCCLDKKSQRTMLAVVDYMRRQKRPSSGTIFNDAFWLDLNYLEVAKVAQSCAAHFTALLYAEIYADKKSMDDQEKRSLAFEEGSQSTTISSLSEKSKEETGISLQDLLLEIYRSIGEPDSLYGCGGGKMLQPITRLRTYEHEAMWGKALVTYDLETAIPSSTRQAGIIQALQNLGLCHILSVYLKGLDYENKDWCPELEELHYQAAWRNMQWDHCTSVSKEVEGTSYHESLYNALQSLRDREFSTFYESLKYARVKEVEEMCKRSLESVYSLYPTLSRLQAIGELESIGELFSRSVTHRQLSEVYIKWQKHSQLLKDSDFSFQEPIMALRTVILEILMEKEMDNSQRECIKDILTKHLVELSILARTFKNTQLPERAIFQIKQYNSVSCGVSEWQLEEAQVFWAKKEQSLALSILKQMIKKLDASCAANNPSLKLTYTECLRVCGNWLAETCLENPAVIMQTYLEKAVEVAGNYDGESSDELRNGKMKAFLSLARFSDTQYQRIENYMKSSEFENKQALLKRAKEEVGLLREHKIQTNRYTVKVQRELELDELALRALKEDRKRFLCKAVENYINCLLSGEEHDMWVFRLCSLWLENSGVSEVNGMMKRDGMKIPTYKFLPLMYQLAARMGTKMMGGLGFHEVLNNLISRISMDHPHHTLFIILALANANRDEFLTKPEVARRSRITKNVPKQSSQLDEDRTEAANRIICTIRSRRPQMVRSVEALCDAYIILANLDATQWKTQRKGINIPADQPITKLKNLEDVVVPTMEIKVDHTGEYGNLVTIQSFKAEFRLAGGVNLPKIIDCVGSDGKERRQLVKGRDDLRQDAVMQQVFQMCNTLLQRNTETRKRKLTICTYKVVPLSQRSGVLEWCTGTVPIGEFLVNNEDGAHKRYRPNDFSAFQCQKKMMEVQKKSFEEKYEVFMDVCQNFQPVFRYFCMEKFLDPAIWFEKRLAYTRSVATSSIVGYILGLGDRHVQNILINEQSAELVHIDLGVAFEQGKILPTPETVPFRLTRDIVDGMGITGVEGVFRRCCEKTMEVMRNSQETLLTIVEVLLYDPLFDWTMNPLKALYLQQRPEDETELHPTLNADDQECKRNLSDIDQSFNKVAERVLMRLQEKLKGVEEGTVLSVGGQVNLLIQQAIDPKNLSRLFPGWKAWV
# UniProt P20585: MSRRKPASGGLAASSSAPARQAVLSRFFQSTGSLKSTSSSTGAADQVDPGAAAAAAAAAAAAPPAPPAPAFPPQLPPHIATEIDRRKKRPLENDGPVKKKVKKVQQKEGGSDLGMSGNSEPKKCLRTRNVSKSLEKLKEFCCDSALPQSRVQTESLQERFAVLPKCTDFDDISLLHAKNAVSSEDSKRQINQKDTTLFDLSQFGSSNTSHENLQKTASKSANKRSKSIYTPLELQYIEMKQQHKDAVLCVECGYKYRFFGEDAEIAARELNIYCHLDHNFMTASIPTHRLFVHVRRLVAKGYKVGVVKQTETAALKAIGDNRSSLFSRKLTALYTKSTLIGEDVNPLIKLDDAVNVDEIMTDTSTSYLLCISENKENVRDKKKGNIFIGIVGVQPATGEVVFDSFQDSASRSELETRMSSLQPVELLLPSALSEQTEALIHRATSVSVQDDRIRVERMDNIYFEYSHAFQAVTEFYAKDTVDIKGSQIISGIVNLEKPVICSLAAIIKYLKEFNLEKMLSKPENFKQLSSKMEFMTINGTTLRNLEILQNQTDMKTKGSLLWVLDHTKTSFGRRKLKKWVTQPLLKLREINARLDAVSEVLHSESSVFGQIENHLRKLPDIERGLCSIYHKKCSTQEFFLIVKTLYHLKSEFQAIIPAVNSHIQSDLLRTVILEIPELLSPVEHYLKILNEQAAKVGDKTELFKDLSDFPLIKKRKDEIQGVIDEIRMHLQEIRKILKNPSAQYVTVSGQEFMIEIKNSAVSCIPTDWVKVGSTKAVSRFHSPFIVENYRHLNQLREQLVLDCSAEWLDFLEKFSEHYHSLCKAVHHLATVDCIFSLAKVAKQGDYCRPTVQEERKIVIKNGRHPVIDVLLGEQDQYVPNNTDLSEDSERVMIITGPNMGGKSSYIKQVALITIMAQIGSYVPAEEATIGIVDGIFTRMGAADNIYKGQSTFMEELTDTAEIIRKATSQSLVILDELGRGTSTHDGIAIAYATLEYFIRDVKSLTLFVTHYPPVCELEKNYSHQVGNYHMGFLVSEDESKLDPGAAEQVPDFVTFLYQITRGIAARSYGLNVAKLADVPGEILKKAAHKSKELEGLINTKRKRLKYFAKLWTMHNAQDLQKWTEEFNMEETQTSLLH
# UniProt P52701: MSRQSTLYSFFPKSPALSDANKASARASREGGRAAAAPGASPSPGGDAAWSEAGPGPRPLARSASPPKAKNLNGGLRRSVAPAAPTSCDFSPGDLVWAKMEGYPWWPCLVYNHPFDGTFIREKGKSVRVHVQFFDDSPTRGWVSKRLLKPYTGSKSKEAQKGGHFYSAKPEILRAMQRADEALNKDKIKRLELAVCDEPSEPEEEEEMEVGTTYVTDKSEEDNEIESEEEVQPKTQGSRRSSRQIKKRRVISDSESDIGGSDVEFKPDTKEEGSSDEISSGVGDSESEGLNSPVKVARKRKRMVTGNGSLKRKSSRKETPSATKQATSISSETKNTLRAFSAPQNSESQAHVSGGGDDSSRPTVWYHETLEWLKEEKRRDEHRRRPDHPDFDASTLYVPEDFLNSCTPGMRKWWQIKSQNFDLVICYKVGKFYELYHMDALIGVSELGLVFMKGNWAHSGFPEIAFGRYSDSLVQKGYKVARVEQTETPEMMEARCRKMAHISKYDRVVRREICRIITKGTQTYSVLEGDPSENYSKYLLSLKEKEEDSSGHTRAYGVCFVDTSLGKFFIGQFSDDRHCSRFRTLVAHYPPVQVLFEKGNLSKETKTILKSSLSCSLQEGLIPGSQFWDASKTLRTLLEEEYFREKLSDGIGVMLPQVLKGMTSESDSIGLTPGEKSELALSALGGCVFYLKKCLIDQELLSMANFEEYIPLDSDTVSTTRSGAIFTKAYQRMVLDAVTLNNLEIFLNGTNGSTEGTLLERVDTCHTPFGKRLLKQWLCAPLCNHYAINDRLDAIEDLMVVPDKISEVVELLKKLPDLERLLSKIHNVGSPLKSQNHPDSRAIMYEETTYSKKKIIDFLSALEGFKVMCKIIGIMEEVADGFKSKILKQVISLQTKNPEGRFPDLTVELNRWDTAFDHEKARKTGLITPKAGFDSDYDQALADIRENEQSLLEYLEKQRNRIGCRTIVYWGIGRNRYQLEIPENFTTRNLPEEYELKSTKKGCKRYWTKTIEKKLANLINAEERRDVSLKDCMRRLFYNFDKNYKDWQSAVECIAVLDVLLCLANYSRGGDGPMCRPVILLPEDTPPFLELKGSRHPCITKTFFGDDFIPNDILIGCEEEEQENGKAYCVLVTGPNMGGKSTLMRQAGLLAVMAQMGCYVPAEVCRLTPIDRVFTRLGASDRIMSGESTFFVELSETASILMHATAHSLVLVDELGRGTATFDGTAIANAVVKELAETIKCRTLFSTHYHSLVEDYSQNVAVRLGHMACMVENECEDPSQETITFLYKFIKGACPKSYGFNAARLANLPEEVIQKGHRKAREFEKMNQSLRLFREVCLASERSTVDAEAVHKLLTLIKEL
# These are yes or no findings as the source states them, for the method shown. In cells and extracts the contact can be indirect. Some entries that bind do so weakly or less than the wild type.
# Molecular target: ATM (human (endogenous in T24 and UMUC3)) (UniProt Q13315)
# Assay: co-IP; anti-ATM antibody adsorbed to protein A/G agarose, 4 h at 4 °C, lysates of T24 and UMUC3 cells in Co-IP buffer, three washes, Western blot
row,binding,Substance
1,no binding,MSH3 (from UniProt P20585 1-1137)
2,binds,MSH6 (from UniProt P52701 1-1360)
